{"source": "patent US4289645A", "about": "(priority 1980, dated 1981)", "key": {"[1]": {"assay": "Oxygen scavenging of hydroquinone/mu-amine, ambient temperature (Example 7)", "details": "Table 8; 60 seconds, 23-25 °C, 103 ppm hydroquinone + 103 ppm mu-amine"}, "[2]": {"assay": "Test for identification of mu-amines compatible with hydroquinone (Example 6)", "type": "physicochemical", "parameters": "key: An asterisk (*) in a column indicates a positive result", "excerpt": "The steps of this test are as follows:\nStep 1: To a 1 pint glass jar which can be equipped with a cover lid add 80.0 grams of demineralized water and 10.0 grams of the amine to be tested.\nStep 2: Stir the contents of the jar for one minute, preferably via a magnetic stirrer. If the amine is a solid, stir until complete dissolution into the water is attained.\nStep 4: Stir the contents of the jar for three minutes. If precipitation within the jar occurs, then the amine is not a mu-amine. If no precipitate formation within the jar is evident, the amine may possibly be a mu-amine, so proceed to Step 5.\nStep 5: Seal the jar and stir vigorously for seven minutes.\nStep 6: After stirring, filter the contents of the jar through a 5 micron filter paper via suction. […] If the contents of the jar pass unhindered through the filter paper, the amine may possibly be a mu-amine and Steps 7 and 8 should be performed.\nStep 7: Remove a 1.0 ml aliquot from the filtration flask or receiver (i.e., an aliquot of the former jar contents) with a syringe.\nStep 8: Inject the contents of the syringe into the room temperature oxygen scavenger apparatus described in Example 4 above which contains air-saturated, demineralized water and sufficient sodium hydroxide to result in a pH 9-10 range in the reaction flask. […]"}}, "note": "For at least one compound, name, drawing or mass did not settle the structure.", "data": [{"smiles": "CC(C)(N)CO", "note": "[Aminomethylpropanol]", "values": [{"measurement": "% O2 Removed", "setting": "[1]", "value": 100, "unit": "%"}, {"measurement": "Step 4: Possible mu-Amine", "setting": "[2]; 10 g amine, 10 g hydroquinone, 80 g water, no precipitate after 3 min stirring", "value": "*"}, {"measurement": "Step 6: Possible mu-Amine", "setting": "[2]; passes unhindered through 5 micron filter", "value": "*"}]}]}
